According to article doi:10.1101/2024.06.10.598255:
Results are given in words; binding and its absence hold for the method and conditions named. Some binding calls cover weakened binding; strength is not graded here.

Protein sequences, listed by entry. Tags and fused reporters are not part of them. Residues count along the entry.
UniProt P29317, residues 24-976: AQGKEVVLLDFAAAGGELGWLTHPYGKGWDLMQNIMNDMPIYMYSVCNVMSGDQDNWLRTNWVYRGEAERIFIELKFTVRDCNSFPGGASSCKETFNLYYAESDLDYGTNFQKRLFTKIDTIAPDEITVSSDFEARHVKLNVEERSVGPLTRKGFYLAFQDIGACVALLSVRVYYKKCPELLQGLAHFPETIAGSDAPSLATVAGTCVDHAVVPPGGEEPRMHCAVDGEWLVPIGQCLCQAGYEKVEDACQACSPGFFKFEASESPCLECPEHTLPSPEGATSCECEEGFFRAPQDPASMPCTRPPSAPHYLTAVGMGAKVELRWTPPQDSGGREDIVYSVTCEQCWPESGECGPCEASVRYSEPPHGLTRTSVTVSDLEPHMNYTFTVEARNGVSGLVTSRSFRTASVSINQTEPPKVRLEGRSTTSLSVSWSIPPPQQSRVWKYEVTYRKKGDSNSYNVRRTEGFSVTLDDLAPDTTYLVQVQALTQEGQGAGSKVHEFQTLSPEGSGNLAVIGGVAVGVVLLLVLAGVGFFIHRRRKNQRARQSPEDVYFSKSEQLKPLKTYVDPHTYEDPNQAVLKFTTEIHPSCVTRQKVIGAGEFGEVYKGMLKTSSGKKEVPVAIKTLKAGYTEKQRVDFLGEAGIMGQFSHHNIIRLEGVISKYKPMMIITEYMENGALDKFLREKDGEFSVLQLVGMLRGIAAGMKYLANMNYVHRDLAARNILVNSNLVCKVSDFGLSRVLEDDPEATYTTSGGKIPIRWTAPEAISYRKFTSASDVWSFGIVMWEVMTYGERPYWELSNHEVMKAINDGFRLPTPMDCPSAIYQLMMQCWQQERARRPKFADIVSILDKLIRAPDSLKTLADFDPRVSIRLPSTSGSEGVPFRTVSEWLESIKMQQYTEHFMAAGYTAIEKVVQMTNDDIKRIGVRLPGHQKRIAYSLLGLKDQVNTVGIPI

Columns and labels:
[1] = biological target: EphA2-GFP (full-length EphA2 with a C-terminal turboGFP tag) (UniProt P29317); assay: SiMPull-POP (single-molecule pulldown of polymeric nanodiscs, GFP photobleaching step counting by TIRF); EphA2-GFP in DIBMALPs (0.15% DIBMA) from HEK293T membrane fractions, captured by a biotinylated EphA2 antibody via NeutrAvidin on quartz slides; 100 pM to 5 nM sample; steps corrected for 70% GFP maturation; control, 2uM EA1-Fc, 5 mM MβCD (1 hour) or both
[2] = biological target: EphA2-GFP (full-length EphA2 with a C-terminal turboGFP tag) (UniProt P29317); assay: SiMPull-POP (single-molecule pulldown, GFP photobleaching step counting by TIRF) in detergent micelles; EphA2-GFP solubilised with 1mM DDM from HEK293T membrane fractions, captured by a biotinylated EphA2 antibody; same conditions as in DIBMALPs (control, EA1-Fc, MβCD, both)

- binding [1]: binds
- binding [2]: binds
Substance: EphA2-GFP (full-length EphA2 with a C-terminal turboGFP tag) (from UniProt P29317 24-976) (receptor)
